The other results are listed elsewhere or left out. Single values are uncertain, as repeats are few or missing.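 The apoptosis fraction was the count of cleaved-PARP antibody-stained nuclei relative to all DNA-stained nuclei, imaged in 1,536-well plates. Screening doses were set so most cells survived, and baseline and induced cleaved-PARP levels vary greatly across cell lines.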
Each compound was assayed on UACC62 (assay: cleaved PARP positive nuclei fraction relative to DMSO control; melanoma cells; higher = more apoptosis). Conditions: library dose: low library concentration; 72 h.

Going from `Cn1c(Nc2ccc(C(F)(F)F)cc2)nc2cc(Oc3ccnc(-c4ncc(C(F)(F)F)[nH]4)c3)ccc21` + Cc1cc([N+](=O)[O-])ccc1NS(=O)(=O)c1cc(Cl)ccc1Cl [FH535] (first compound 0.08 µM, partner dose 1 µM) to `OCCn1cc(-c2cnc3nnn(Cc4ccc5ncccc5c4)c3n2)cn1` + COc1cc(N2CCC(N3CCN(C)CC3)CC2)ccc1Nc1ncc(Cl)c(Nc2ccccc2S(=O)(=O)C(C)C)n1 [NVP-TAE684] (first compound 1 µM, partner dose 0.08 µM), the “cleaved PARP positive nuclei fraction” value falls from 265% to 56.4%.

Compared with `O=C(CCCCCCC(=O)Nc1ccccc1)NO` [vorinostat] + O=S(=O)(c1ccccc1)N(CC(F)(F)F)c1ccc(C(O)(C(F)(F)F)C(F)(F)F)cc1 [T0901317] (first compound 0.08 µM, partner dose 1.4 µM), `C#Cc1cccc(Nc2ncnc3cc(OCCOC)c(OCCOC)cc23)c1` [erlotinib] + N#Cc1c(O)c2c(-c3ccc(-c4ccccc4O)cc3)csc2[nH]c1=O [A769662] (first compound 0.8 µM, partner dose 2 µM) is higher in “cleaved PARP positive nuclei fraction” value: 80.4% for the first, 134% for the second.

Going from `CC(C)(C)c1cnc(CSc2cnc(NC(=O)C3CCNCC3)s2)o1` + CCc1ccc(CCOc2ccc(CC3SC(=O)NC3=O)cc2)nc1 [pioglitazone] (first compound 0.01 µM, partner dose 2 µM) to `COc1cc(Nc2ncc(F)c(Nc3ccc4c(n3)NC(=O)C(C)(C)O4)n2)cc(OC)c1OC` [Tamatinib] + Cn1cc(/C=C2\C(=O)Nc3cccnc32)c2ccccc21 [GW441756] (first compound 0.4 µM, partner dose 0.4 µM), the “cleaved PARP positive nuclei fraction” value falls from 75.8% to 64%.
